Experimental data from patent US9120744B2, “Plasminogen activator inhibitor-1 inhibitors and methods of use thereof to modulate lipid metabolism” (THE REGENTS OF THE UNIVERSITY OF MICHIGAN, priority 2007, dated 2015).

By UniProt entry, the sequences of proteins in these tests, tags left out. Residues count along the entry.
UniProt P05121, 24-402: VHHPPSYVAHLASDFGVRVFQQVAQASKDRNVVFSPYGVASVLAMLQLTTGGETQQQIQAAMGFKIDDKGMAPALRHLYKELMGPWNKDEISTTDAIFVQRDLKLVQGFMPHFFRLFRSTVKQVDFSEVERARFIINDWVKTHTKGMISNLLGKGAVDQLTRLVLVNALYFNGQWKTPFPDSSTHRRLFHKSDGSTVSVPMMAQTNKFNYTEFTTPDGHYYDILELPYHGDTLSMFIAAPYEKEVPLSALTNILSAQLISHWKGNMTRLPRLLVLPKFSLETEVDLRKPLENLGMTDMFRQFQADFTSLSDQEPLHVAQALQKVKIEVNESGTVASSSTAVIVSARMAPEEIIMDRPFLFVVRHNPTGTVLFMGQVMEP

Biological target: recombinant active human PAI-1 (Homo sapiens (Human), UniProt P05121)
Assay: β-trypsin screening assay for PAI-1 inhibitors;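 also: fluorogenic readout with PAI-1 and β-trypsin at 10:1 molar ratio, untreated PAI-1 wells set as 100% PAI-1 activity and β-trypsin alone as 0%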
Format: biochemical
Conditions: 10 μM compound; hit = more than 3 standard deviations above control

## CN1CCN(CCCN2c3ccccc3Sc3ccc(Cl)cc32)CC1.O=C(O)/C=C\C(=O)O [10H-Phenothiazine, 2-chloro-10-[3-(4-methyl-1-piperazinyl)propyl-]
  screening hit: restoration of β-trypsin activity: demonstrate PAI-1 inhibitor activity
